Among the data in PubChem BioAssay AID463183 (Sanford-Burnham Center for Chemical Genomics, 2010) are cell count values, retold here.

Each structure is given as a SMILES string. Some of the results follow. Further columns of the screen follow, without active or inactive calls. Most of these compounds were active or inconclusive in the main read-out, so they are no random draw.

The experiment is described as follows: hepatocyte lipid droplet accumulation inhibitors, confirmation, imaging, AML12 mouse hepatocytes, single concentration, high-content (AID 463183).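 Also: cells counted after overnight compound exposure.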 The note with it: BODIPY lipid droplet imaging, measured here: cell count, cytotoxicity, at 5.2 µM, droplets induced with 100 µM oleic acid.
On to `CC1(OC(=O)CCc2ccccc2)C(=O)C=C2C=C(c3ccc(C#N)cc3)N(CCc3c[nH]c4ccccc34)C=C2C1=O` (centres undefined), for which the cell count came to 1510 cells.
Then `COC(=O)c1ccc(NS(=O)(=O)c2ccc3c(c2)n(C)c(=O)n3C)cc1`, with 1520 cells.
Consider `CCOc1ccc(CCNC(=O)c2cc3sccc3n2CC)cc1OCC`, for which the cell count was 1600 cells.
Then `CN1CC(=O)Nc2ccc([N+](=O)[O-])cc2C1=O`, with 1580 cells; and `COc1ccc(F)cc1CN1CCN(c2ncnc3scc(-c4ccccc4)c23)CC1`, with 1660 cells.
In the case of `COc1ccc(Cl)cc1NC(=O)CN1C(=O)NC2(CCCC2)C1=O`, the cell count was 1560 cells.
The figure for `C=C(C)C(=O)N1CC2(CC(c3cccc(NC(=O)/C=C\C=C/C)c3)=NO2)C[C@H]1C(N)=O` (some centres undefined) is 1730 cells; for `COc1ccc(CCNC(=O)[C@H](C)N2C(=O)N3CCc4c([nH]c5ccccc45)[C@@]3(C)C2=O)cc1OC` it is 1600 cells; for `CC(C)(C)c1ccc(-c2csc(NNC3=NCCCCC3)n2)cc1` it is 1630 cells.
Turning to `Cn1c(=O)c(=O)n(C)c2cc(N3CCCC3)c(NS(=O)(=O)c3ccc(Cl)cc3)cc21`, the cell count is 1600 cells.
`COc1ccc(-c2csc(NC(=O)c3ccc(OCC(=O)N4CCOCC4)c(OC)c3)n2)cc1` came in with a cell count of 1520 cells.
Then `CCCCCCCNC(=O)C1(CC2CC(c3ccc(Cl)cc3)=NO2)CCN(C(=O)c2cc(OCC)c(OCC)c(OCC)c2)CC1` (centres undefined), with 1550 cells; and `COc1ccc(CN(C)C(=O)CNC(=O)Cc2cccc3ccccc23)c(OC)c1OC`, with 1600 cells.
Then `CN(C)c1nc(N/N=C/c2c[nH]c3ccccc23)nc(N2CCOCC2)n1`, with 547 cells; and `CCc1ccc(OCc2ccc(C(=O)O)o2)cc1`, with 1560 cells; and `CCOc1ccc(CCNC(=O)/C=C/c2ccco2)cc1OCC`, with 1590 cells.
Then `CCOc1ccc(C(=O)NCC(=O)NC(C)CCc2ccccc2)cc1OCC` (centres undefined), with 1530 cells.
For `COc1ccc(N=C2C(=Nc3ccc(OC)cc3)N(c3ccc(OC)cc3)C(=S)N2C)cc1`, the cell count stood at 1600 cells.
Then `Cc1c(S(=O)(=O)c2ccccn2)c(N)n(Cc2ccccc2)c1C`, with 1540 cells; and `O=[N+]([O-])c1cc(Cl)ccc1N1CCN(c2cccc(C(F)(F)F)c2)CC1`, with 1650 cells; and `CCCOc1ccc(C(=O)OCC(=O)NCCc2ccc(OCC)c(OCC)c2)cc1OC`, with 1640 cells.
Regarding `CC(C)Oc1ccccc1/C=N/Nc1ccccc1[N+](=O)[O-]`, the cell count stood at 1550 cells.
The figure for `O=C(Nc1ccc(Br)cc1)c1cccc(OC(=S)N2CCOCC2)c1` is 1570 cells.
With `Oc1c(N=Nc2ccc(F)cc2)ccc2ccccc12`, the cell count was found to be 1510 cells.
The figure for `CCOc1ccc(CCNC(=O)CSc2cc(=O)n(C)c3cc(Cl)ccc23)cc1OCC` is 1550 cells; for `c1ccc(-c2csc(NNC3=NCCCCC3)n2)cc1` it is 1560 cells; for `COc1ccccc1NC(=O)N1CCCC1C(=O)Nc1ccc2c(c1)OCO2` (centres undefined) it is 1530 cells.
Take `CCn1cc(CCCC(=O)NCc2ccccc2OC)c2ccccc21`: the cell count amounted to 1660 cells.
In turn, `Cc1cc(C)nc(Nc2nc3ccccc3[nH]2)n1` came in with a cell count of 1660 cells.
Then `CCOc1ccc(CCNC(=O)CCc2nc(-c3ccc(OC)cc3)no2)cc1OCC`, with 1500 cells; and `COc1ccc(/C=C\C(=O)NCc2ccc3[nH]c(C)cc3c2)cc1OC`, with 1610 cells; and `Cc1cc2c(cc1S(=O)(=O)Nc1cccc(C)c1C)n(C)c(=O)c(=O)n2C`, with 1640 cells.
The figure for `N=c1scc(-c2ccccc2)n1/N=C/c1ccco1` is 1600 cells; for `Cc1cc(C)c2nc(SCC(=O)N3CC(=O)Nc4ccccc43)c(C#N)cc2c1` it is 405 cells; for `Cc1nc(NC(=O)c2ccc(OCC(C)C)cc2)sc1Cc1ccc2c(c1)OCO2` it is 1600 cells.
The figure for `CC(C)c1ccc(NC(=O)CSc2nc3ccccc3nc2N2CCCC2)cc1` is 1530 cells.
Turning to `CCOc1ccc2nc(NC(=O)CSc3nc4ccccc4c(=O)n3Cc3ccco3)sc2c1`, the cell count came out at 1520 cells.
As for `Cc1ccc(C2/C(=C(/O)c3cnn(-c4ccccc4)c3C)C(=O)C(=O)N2CCCN2CCOCC2)o1` (centres undefined), the cell count came to 1530 cells.
The figure for `CCc1nc2ccccc2c(C(=O)OCC(=O)NCc2ccc3c(c2)OCO3)c1C` is 1570 cells.
